Data from PubChem BioAssay AID2685 (National Center for Advancing Translational Sciences (NCATS), 2010).
The other results are listed elsewhere or left out. Shown are side measurements of this screen, not its main read-out; they come without a call. Compounds called inactive in the main read-out are mostly missing here. Words in brackets tell the shape of the fitted curve; partial curves, single points and poor fits give uncertain potencies.

Experiment: qHTS Assay for Lipid Storage Modulators in Drosophila S3 Cells;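 for cell number change: cells counted by Cell Tracker Red CMTPX staining in the red channel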
Details: BODIPY lipid droplet fluorescence, 18-24 h; for cell number change: measured here: cell count max response, cells fed with added oleic acid
Outline: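 Laser-scanning cytometry quantifies lipid droplet accumulation (500–530 nm total intensity; droplet/cell object ratio) in oleic acid-fed (400 uM added) Drosophila S3 cells treated with a concentration series. 20 uM Triacsin C defined 100% inhibition.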

[1] = measured here: cell number channel AC50, cells fed with added oleic acid
[2] = measured here: lipid fluorescence (Fed channel) AC50, cells fed with added oleic acid

SMILES	cell number change	AC50 [1]	AC50 [2]
O=S(=O)(Nc1ncccn1)c1ccc(NS(=O)(=O)c2cccc(Cl)c2Cl)cc1	-36.9%	0.92 µM [rising, full curve]	
COc1ccc(-c2csc(NC(=O)Cc3ccccc3)n2)cc1OC			2.91 µM [rising, partial curve]
CCOC(=O)Cc1csc(NC(=O)COc2ccccc2OC)n1	-10.2%		
CC(C)c1ccc(C2(C)NC(=O)N(CC(=O)NC3CCCC(C)C3C)C2=O)cc1 (configuration not stated)	-42.8%	29.1 µM [falling, single point]	
CC(C)C[C@H](NC(=O)Nc1ccccc1F)C(=O)O	-8.11%		3.66 µM [falling, full curve]
CC(=O)Nc1ccc(NC(=O)CN(c2cccc([N+](=O)[O-])c2)S(C)(=O)=O)cc1	-11.1%		3.26 µM [falling, full curve]
COc1cc(OC)cc(C(=O)NNC(=S)NCc2ccco2)c1	1.85%	5.8 µM [falling, single point]	1.03 µM [falling, full curve]
CCc1cc2c(-c3ccccc3)cc(=O)oc2cc1OC(C)C(=O)O (configuration not stated)	7.61%		29.1 µM [rising, single point]
CCc1cc(=O)oc2c(C)c(O[C@@H]3O[C@H](CO)[C@@H](O)[C@H](O)[C@H]3O)ccc12	19%		
CCOc1cc(/C=C/C(=O)OCC(=O)NCc2ccco2)cc(Cl)c1OC	-18.9%		
C=CCc1cccc(CNc2c(C)n(C)n(-c3ccccc3)c2=O)c1O	-19.5%		29.1 µM [falling, single point]
CCn1c(=O)cc(SCC(=O)N(C)Cc2ccccc2)c2ccccc21	97.6%	0.164 µM [rising, full curve, poor fit]	
O=C(O)c1cc(C(=O)C2CC2)c[nH]1		1.64 µM [falling, single point]	2.59 µM [falling, partial curve, poor fit]
Cc1ccc(S(=O)(=O)N(C)CCCC(=O)N2CCN(C=O)CC2)cc1	4.3%		29.1 µM [rising, single point]
CCC1CCCCN1CCCNC(=O)CCCNC(=O)Cn1cnc2sc3c(c2c1=O)CCCC3 (configuration not stated)	28.6%		
N#CCCn1cc(C(=O)Nc2ccc(C(=O)O)cc2)c(-c2cccs2)n1	-4.62%	0.0092 µM [falling, full curve]	0.0058 µM [falling, full curve, poor fit]
O=C(CSc1cc(Cl)ccc1Cl)NCCCn1ccnc1	-1.9%		6.51 µM [rising, single point]
O=C(N/N=C/c1ccccn1)c1cc(-c2ccccc2)nc2ccccc12	-25.8%		14.6 µM [falling, partial curve]
Nc1nc(SCC(=O)NC2CCCCC2)[nH]c(=O)c1-c1ccccc1	35.9%	29.1 µM [rising, single point]	29.1 µM [rising, single point]
COC(=O)c1ccc(C2C(C(=O)c3ccco3)=C(O)C(=O)N2c2cc(C)on2)cc1 (configuration not stated)	-6.37%		29.1 µM [rising, single point]

Complete entries, looked up by structure. Values in the order: cell number change	AC50 [1]	AC50 [2]
Nc1nc(SCC(=O)NC2CCCCC2)[nH]c(=O)c1-c1ccccc1 as listed: 35.9%	29.1 µM [rising, single point]	29.1 µM [rising, single point]
N#CCCn1cc(C(=O)Nc2ccc(C(=O)O)cc2)c(-c2cccs2)n1 as listed: -4.62%	0.0092 µM [falling, full curve]	0.0058 µM [falling, full curve, poor fit]

Following part:

SMILES	cell number change	AC50 [1]	AC50 [2]
Cc1cccnc1N(C(=O)Nc1cccc(Cl)c1)C1=NCC(C)(C)S1	-22.8%		32.6 µM [falling, single point]
CC(C)(C)C(=O)NC1CC2CCCC(C1)N2C(=O)Nc1ccccc1Cl (configuration not stated)	11.8%		
Fc1ccc(Nc2ncnc3sccc23)cc1	19.1%		0.13 µM [falling, full curve, poor fit]
Cc1ccc(-c2ccc(SCC(=O)Nc3cc(C)on3)nn2)cc1	12.3%		29.1 µM [rising, single point]
Cc1occc1-c1nnc(SCC(=O)NCCc2ccccc2)n1Cc1ccccc1	2.3%		0.00461 µM [rising, full curve, poor fit]
CSc1nnc(-c2cc[n+](C)cc2)n1CCO	-33.8%	0.058 µM [falling, full curve, poor fit]	0.146 µM [falling, full curve]
CC(O)c1ccc(OCCN(C)c2ccccn2)cc1 (configuration not stated)	25.7%		9.2 µM [rising, partial curve, poor fit]
CCOC(=O)NC(=O)COC(=O)CNC(=O)c1ccc(OCC)c(OCC)c1	2.15%		2.91 µM [rising, single point]
COC(=O)C1CCCN1S(=O)(=O)c1ccc2ccccc2c1 (configuration not stated)	-13.2%		
O=C(NCc1nc2ccccc2[nH]1)C1=C[C@@H](C2CCCCC2)C[C@@H](OCCCCO)O1	-4.92%		25.9 µM [rising, single point]
O=C(C(=O)N1CCOCC1)c1cn(CCOc2ccccc2)c2ccccc12	-44.9%	29.1 µM [falling, single point]	29.1 µM [falling, single point]
CCc1ccccc1N(CC(=O)N1CCN(c2ccc(F)cc2)CC1)S(C)(=O)=O	-10.8%		
O=C(NC1CC1)C1=C[C@@H](c2c[nH]c3ccccc23)C[C@@H](OCc2ccc(CO)cc2)O1	-5.4%		29.1 µM [falling, single point]
CCOc1ccc(NC(=O)CCNC(=O)Cn2ccc3ccccc3c2=O)cc1	16.7%		2.59 µM [rising, full curve]
Cc1cccc(-c2nnc(SCc3cc(=O)[nH]c4ccccc34)n2C)c1	34.4%	0.92 µM [rising, full curve, poor fit]	
CCOC(=O)c1c(C)[nH]c(C(=O)CN2C(=O)NC(C)(CC(C)C)C2=O)c1C (configuration not stated)	13.2%	1.03 µM [rising, partial curve, poor fit]	
COc1ccc(CNC(=O)CSc2nnnn2C)cc1OC	14.2%		3.66 µM [falling, single point]
O=[N+]([O-])c1cc2c(cc1/C=N/NS(=O)(=O)c1ccc(Br)cc1)OCO2	47.5%	23.1 µM [rising, single point]	25.9 µM [rising, single point]
CCOC(=O)c1oc2ccccc2c1NC(=O)Cc1cccs1	-38.2%	13 µM [falling, partial curve, poor fit]	18.4 µM [falling, single point]
